# The whole screen tested about 340,000 compounds, of which about 4,500 (1.3%) were called active. This list was built around the results that the source calls inconclusive (neither active nor inactive); the mix of calls is not that of the screen. Calls come from the whole dose curve; as a rule, active = well fitted inhibition curve with a large enough effect; inconclusive = small, poorly fitted or top-dose-only effect, or another doubt; inactive = no such curve, though single readings can be large or run the other way. Where the call is inconclusive, the potency comes from a doubtful curve fit.
# Molecular target: DNA polymerase beta (Homo sapiens) (UniProt P06746)
# Experiment: qHTS Assay for Inhibitors of DNA Polymerase Beta
# Conditions: Pol beta primer extension/strand displacement, fluorescence kinetic; activity change, negative = inhibition: at 114 µM (top of the series)
# In short: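 Curves were derived by four-parameter Hill fits of normalized qHTS data. The kinetic fluorescent primer-extension read was taken at 0 and 10 min after 50 nM substrate, following a 15 min room-temperature preincubation of 10 nM enzyme with compounds.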
# % is set by controls: 0 for no effect and ±100 for the full control effect; potency is the fitted concentration of half-maximal effect.
Compound,Potency,"activity change, negative = inhibition"
Cc1cccc(Oc2ccc(NC(=O)C3CC=CCC3C(=O)O)cc2)c1 (stereo not given),"inconclusive: 0.794 µM [inhibitor, full curve, poor fit]",
O=C(OCc1cc(=O)n2cc(Br)ccc2n1)C1COc2ccccc2O1 (stereo not given),"inconclusive: 89.1 µM [inhibitor, single point]",
CC(C)CCNC(=O)c1cc(-c2cccnc2)nc2ccc(S(=O)(=O)N3CCC(C)CC3)cc12,,inactive: -10.2%
O=C(CSc1nc2c([nH]c3ccccc32)c(=O)n1-c1ccccc1)N1CCCCC1,"inconclusive: 89.1 µM [inhibitor, single point]",
COc1cc(OC)c2ccc(=O)oc2c1C(CC(=O)N1CCCC(C)C1)c1ccc2c(c1)OCO2 (stereo not given),active: 39.8 µM,
Cc1cccc(-n2c3nc(=O)[nH]c(=O)c-3cc3ccc(Cl)cc32)c1C,,inactive: 22%
c1ccc(CCN2CCN(c3ncnc4c3cnn4-c3ccccc3)CC2)cc1,"inconclusive: 89.1 µM [inhibitor, single point]",
NC(=O)N=Nc1c(O)[nH]c2ccc([N+](=O)[O-])cc12,"inconclusive: 35.5 µM [inhibitor, full curve]",
CCN(CC)S(=O)(=O)c1ccc2c(c1)oc(=O)n2CC(=O)NC1CCCCC1,,inconclusive: -32.1% [inhibitor]
CC(=O)N(CC(=O)Nc1nn(-c2ccccc2)nc1C(N)=O)Cc1ccccc1,,inactive: 11.3%
Cc1cc(C2C(C#N)=C(N)SC(N)=C2C#N)c(C)s1,,inactive: -2.3%
CCCCN(CCCC)S(=O)(=O)c1ccc(NC(=O)Cc2cccs2)cc1,"inconclusive: 11.2 µM [inhibitor, full curve]",
CC(C(=O)OCC(=O)Nc1cccc(S(=O)(=O)N(C)C)c1)N1C(=O)c2ccccc2C1=O (stereo not given),,inactive: -17.3%
Cc1ccccc1N1C(=O)C(Cl)=C(N2CCCCCC2)C1=O,"inconclusive: 1.78 µM [inhibitor, full curve]",
COc1ccc(C(=O)NC(c2ccccc2Cl)c2cc(Cl)c3cccnc3c2O)cc1 (stereo not given),"inconclusive: 89.1 µM [inhibitor, single point]",
O=C(CSc1ncccc1C(=O)O)Nc1ccc2c(c1)OCCO2,"inconclusive: 100 µM [inhibitor, partial curve, poor fit]",
O=C(Nc1nc2ccc(F)cc2s1)c1ccccn1,"inconclusive: 100 µM [inhibitor, single point]",
CC(C)Oc1ccc(C(=O)N(Cc2ccc(N(C)C)cc2)Cc2ccco2)cc1,,inactive: 20.6%
O=C(NN=C1C2CC3CC1CC(Cl)(C3)C2)c1ccccn1,,inactive: -5.45%
O=C(NCCc1ccccc1)c1ccc2c(c1)nc1n2CCOC1,,inactive: 15.8%
Cc1cccc(N2CC(C(=O)Nc3nnc(SCC(=O)NCC4CCCO4)s3)CC2=O)c1 (stereo not given),,inactive: -15.1%
Cc1ccc(S(=O)(=O)Nc2cc(Cl)c3oc4c(c3c2)CCCC4)cc1,,inactive: -18.6%
CNC(=O)Nc1ccc2nc(C)oc2c1,"inconclusive: 89.1 µM [inhibitor, single point]",
COc1ccc(Nc2ncccc2C(=O)NCc2ccccc2)cc1,,inactive: 1.46%

# Shown as tab-separated lines: 2 of the compounds above.
Compound	Potency	activity change, negative = inhibition
O=C(CSc1nc2c([nH]c3ccccc32)c(=O)n1-c1ccccc1)N1CCCCC1	inconclusive: 89.1 µM [inhibitor, single point]	
COc1cc(OC)c2ccc(=O)oc2c1C(CC(=O)N1CCCC(C)C1)c1ccc2c(c1)OCO2 (stereo not given)	active: 39.8 µM	

# More structures follow.

Compound,Potency,"activity change, negative = inhibition"
Cc1cccc(OC(=O)c2snnc2C)c1,"inconclusive: 100 µM [inhibitor, single point]",
COc1ccc(S(=O)(=O)NCCSC(C)(C)C)c(Cl)c1Cl,"inconclusive: 5.01 µM [inhibitor, full curve, poor fit]",
Cc1ccc(C)c(S(=O)(=O)Nc2ccc(O)c(Sc3ncn[nH]3)c2)c1,,inconclusive: -92% [inhibitor]
CCOc1ccccc1NC(=O)CCS(=O)(=O)c1ccc(Br)cc1,active: 10 µM,
O=C(CSc1nc2ccsc2c(=O)n1Cc1ccc(C(=O)O)cc1)NCc1ccco1,,inactive: -5.61%
O=C(CCS(=O)(=O)c1ccc(Br)s1)Nc1cc(C(F)(F)F)cc(C(F)(F)F)c1,"inconclusive: 12.6 µM [inhibitor, partial curve]",
C=CCNC(=S)N/N=C(\C)c1ccc(OC)cc1,"inconclusive: 3.16 µM [inhibitor, partial curve, poor fit]",
CCOc1ccc(N(CC(=O)NC(C)(C)C)S(=O)(=O)c2c(C)noc2C)cc1,"inconclusive: 100 µM [inhibitor, partial curve, poor fit]",
CCc1ccc(CN2CCN(C(=O)c3ccco3)CC2)cc1,,inactive: 0.909%
CC(Sc1nc2sccc2c(=O)n1-c1ccccc1)C(N)=O (stereo not given),"inconclusive: 28.2 µM [inhibitor, full curve]",
COc1ccc(/C=N/NC(=O)c2ccc(=O)[nH]n2)cc1OC,active: 7.94 µM,
C=Cc1ccc(Cn2c(C(=O)O)c(CNCCc3ccco3)c3ccc(C)cc32)cc1,"inconclusive: 89.1 µM [inhibitor, single point]",
COc1ccc2nc(C)cc(SCC(=O)NNC(=O)COc3ccc(C)cc3)c2c1,"inconclusive: 0.447 µM [inhibitor, full curve]",
CCOc1ccccc1NC(=O)CSc1ncc2c(n1)-c1ccccc1N(CC)S2(=O)=O,,inactive: 10.7%
O=C(CCCCCN1C(=O)CCC1=O)Nc1ncn[nH]1,"inconclusive: 39.8 µM [inhibitor, single point]",
O=C1C(=C2CCCCC2)SC(=S)N1Cc1ccco1,active: 25.1 µM,
CN(C)c1ccc(C(=O)Nc2ccc(S(=O)(=O)NC3=NCCCCC3)cc2)cc1,"inconclusive: 89.1 µM [inhibitor, single point]",
Cn1nnnc1SCC1=C(C(=O)O)N2C(=O)C(NC(=O)C3CC3c3ccccc3)C2SC1 (stereo not given),active: 31.6 µM,
COCCNC(=O)Cn1nc(-c2ccc(C)cc2)c2ccccc2c1=O,"inconclusive: 100 µM [inhibitor, single point]",
Nc1ccc2nc3c(=O)n(C4CCCCC4)c(=O)[nH]c3nc2c1,,inconclusive: -41.7% [inhibitor]
Cc1cccc(NC(=O)c2ccc(CN3CC(=O)N4CCCCC4C3=O)cc2)c1C (stereo not given),,inactive: 17.9%
CCOc1ccc2c(c1)c(=O)c(C(=O)c1ccc(CC)cc1)cn2CC(=O)Nc1cccc(Cl)c1,,inactive: 7.45%
Cc1ccc(NC(=O)COC(=O)C(NS(=O)(=O)c2ccc(Cl)cc2)C(C)O)cc1 (stereo not given),"inconclusive: 5.01 µM [inhibitor, full curve, poor fit]",
CCO[C@H]1OC(C(=O)N2CCN(Cc3ccc4c(c3)OCO4)CC2)=C[C@@H](c2ccc(C(F)(F)F)cc2)[C@@H]1CCCO,"inconclusive: 0.126 µM [inhibitor, full curve, poor fit]",

Compound,Potency,"activity change, negative = inhibition"
Cc1cc(C)c(Cn2c(=O)n(CCC(=O)NCc3ccc4c(c3)OCO4)c(=O)c3ccccc32)c(C)c1,,inactive: 24.5%
Cc1ccc(N2C(=O)[C@@H]3CSC(c4ccc(Cl)cc4)N3C2=O)cc1 (stereo not given in full),"inconclusive: 0.126 µM [inhibitor, full curve, poor fit]",
Oc1c(C=C2N=c3ccccc3=N2)sc(=S)n1-c1ccccc1,,inactive: 35.8%
CCC(C)(C)n1nnnc1CN1CCN(C(c2ccccc2)c2ccccc2)CC1,"inconclusive: 31.6 µM [inhibitor, single point]",
C(=C\c1ccccc1)/C=N/N1CCN(c2ccccn2)CC1,"inconclusive: 1.12 µM [inhibitor, full curve, poor fit]",
Cc1ccc(C(=O)NNC(=O)C2CCN(c3nc(C)cc(C)n3)CC2)cc1,"inconclusive: 89.1 µM [inhibitor, single point]",
CN(C)c1ccc(/C=C2\C(=N)N3N=C(CC(=O)N4CCCCC4)SC3=NC2=O)cc1,"inconclusive: 39.8 µM [inhibitor, single point]",
Cc1ccc(CONC(=O)c2ccc(OC(F)F)cc2)cc1,"inconclusive: 39.8 µM [inhibitor, single point]",
CCN1CCSc2ccc(C(=O)NCc3cccc(Br)c3)cc21,"inconclusive: 0.141 µM [inhibitor, full curve, poor fit]",
CC(=O)Nc1ccc(N=Cc2c(O)c(C(=O)Nc3ccccc3)cc3ccccc23)cc1,"inconclusive: 2.82 µM [inhibitor, full curve]",
Cc1cc(S(=O)(=O)N2CCN(c3ccc(F)cc3)CC2)ccc1-n1cnnn1,"inconclusive: 89.1 µM [inhibitor, single point]",
c1ccc(-c2nc(N3CCN(c4ccccc4)CC3)nc(-n3ccnc3)n2)cc1,"inconclusive: 28.2 µM [inhibitor, full curve]",
O=C(Nc1ccc(F)cc1F)c1cc(-c2ccco2)nc2ccccc12,,inactive: 5.16%
S=c1[nH]nc(-c2cc(-c3ccco3)[nH]n2)n1-c1ccccc1Cl,"inconclusive: 22.4 µM [inhibitor, full curve]",
O=C(COC(=O)CCN1C(=O)/C(=C\C=C\c2ccccc2)SC1=S)Nc1cc(F)ccc1F,"inconclusive: 20 µM [inhibitor, single point]",
CCOC(=O)c1cnc(-n2[nH]c(C)c(Cc3ccccc3)c2=O)[nH]c1=O,active: 3.16 µM,
Cc1ccc(S(=O)(=O)NCCSc2nnnn2-c2ccc(C(N)=O)cc2)cc1,"inconclusive: 3.98 µM [inhibitor, single point]",
COc1cc(NC(=O)c2cc3c(C)nc4ccccc4c3o2)cc(OC)c1OC,"inconclusive: 0.158 µM [inhibitor, full curve, poor fit]",
O=[N+]([O-])c1ccc2nc(-c3ccccc3)n(OCc3ccc(Cl)cc3)c2c1,active: 28.2 µM,
O=C(N/N=C/c1ccoc1)c1ccc(Cl)cc1Cl,"inconclusive: 22.4 µM [inhibitor, full curve]",
S=c1[nH]nc(-c2cc(-c3ccccc3)n[nH]2)n1/N=C/c1ccc(Cl)cc1,active: 39.8 µM,
O=c1c2ccccc2nnn1CSc1nc2sc3c(c2c(=O)n1CC1CCCO1)CCC3 (stereo not given),"inconclusive: 6.31 µM [inhibitor, full curve]",

# An excerpt from above in order of heavy-atom count, descending.
Compound,Potency,"activity change, negative = inhibition"
CCOc1ccccc1NC(=O)CSc1ncc2c(n1)-c1ccccc1N(CC)S2(=O)=O,,inactive: 10.7%
O=C(NCCc1ccccc1)c1ccc2c(c1)nc1n2CCOC1,,inactive: 15.8%
O=C(CCCCCN1C(=O)CCC1=O)Nc1ncn[nH]1,"inconclusive: 39.8 µM [inhibitor, single point]",
